Measurements as given in PubChem BioAssay AID248 (DTP/NCI, 2004).
The list shows only some results of the screen, not a fair sample: it is rich in T/C values a quarter to a half above the control, in often repeated tests (any T/C) and in doses without a T/C. Other doses and runs of a compound stand elsewhere. T/C is the treated group as % of the vehicle group. Some doses have a count of surviving animals in place of a T/C: the source files T/C as zero there, which appears to mark a toxic dose or a test without result, not a measured value. Some doses without a T/C left all or most animals alive at the check, yet need not have been tolerated: survival well below the control is almost never listed, so the zero probably covers shortened survival too. Counts of survivors are from the toxicity check (mostly the fifth day) where no day follows; animals may have died later. Schedules are NCI's codes, taken here to give the interval after Q, in days (D) or hours (H), and the number of doses after X. Some entries were tested several times; the values are given in rising order. Some schedule codes hold Z or #, which are not explained here. For survival time, the PubChem record calls one and a half times the control and up active, and a quarter to a half above the control has no call in these data; cut-offs in other NCI protocols can differ. Counts like (3×) count equal records among those shown.

System: L1210 leukemia ip in BDF1 mice, survival T/C
Experiment: NCI In Vivo Anticancer Drug Screen. Data for tumor model L1210 Leukemia (intraperitoneal) in B6D2F1 (BDF1) mice
Settings: T/C endpoint: mean survival time, higher T/C = longer survival
[1] = dose: 400.0 mg/kg/injection, schedule: Q04DX003 (ip), vehicle: saline with Tween-80
[2] = dose: 100.0 mg/kg/injection, schedule: Q04DX003 (ip), vehicle: saline with Tween-80
[3] = dose: 400.0 mg/kg/injection, schedule: Q01DX009 (ip), vehicle: saline with Tween-80
[4] = dose: 200.0 mg/kg/injection, schedule: Q01DX009 (ip), vehicle: Klucel (hydroxypropylcellulose) (HPC)
[5] = dose: 400.0 mg/kg/injection, schedule: Q01DX009 (ip), vehicle: Klucel (hydroxypropylcellulose) (HPC)
[6] = dose: 100.0 mg/kg/injection, schedule: Q01DX009 (ip), vehicle: saline with Tween-80
[7] = dose: 200.0 mg/kg/injection, schedule: Q01DX009 (ip), vehicle: saline with Tween-80
[8] = dose: 400.0 mg/kg/injection, schedule: Q04DX003 (ip), vehicle: saline
[9] = dose: 100.0 mg/kg/injection, schedule: Q04DX002 (ip), vehicle: saline with Tween-80
[10] = dose: 200.0 mg/kg/injection, schedule: Q04DX002 (ip), vehicle: saline with Tween-80
[11] = dose: 400.0 mg/kg/injection, schedule: Q04DX002 (ip), vehicle: saline with Tween-80
[12] = dose: 50.0 mg/kg/injection, schedule: Q01DX009 (ip), vehicle: saline with Tween-80
[13] = dose: 200.0 mg/kg/injection, schedule: Q04DX003 (ip), vehicle: saline
[14] = dose: 25.0 mg/kg/injection, schedule: Q01DX009 (ip), vehicle: saline with Tween-80
[15] = dose: 200.0 mg/kg/injection, schedule: Q04DX003 (ip), vehicle: saline with Tween-80

For `CSC(N(C)C)=[N+](C)C`, the survivor count (dose: 240.0 mg/kg/injection, schedule: Q01DX Z (ip), vehicle: methylcellulose (MC)) was 1 of 6, the survivor count (dose: 240.0 mg/kg/injection, schedule: Q01DX Z (oral), vehicle: methylcellulose (MC)) was 1 of 6 and the survivor count [1] was 0 of 6. For the same compound, the survivor count (dose: 480.0 mg/kg/injection, schedule: Q01DX Z (ip), vehicle: methylcellulose (MC)) was 0 of 6 and the survivor count (dose: 480.0 mg/kg/injection, schedule: Q01DX Z (oral), vehicle: methylcellulose (MC)) was 0 of 6.
For `O=c1o[nH]c(-c2ccccc2)c1-c1ccccc1`, the survivor count (dose: 25.0 mg/kg/injection, schedule: Q04DX003 (ip), vehicle: saline) was 6 of 6, the survivor count (dose: 50.0 mg/kg/injection, schedule: Q04DX003 (ip), vehicle: saline) was 6 of 6 and the survivor count [2] was 6 of 6. The survivor count [1] was 3 of 6.
For `CC(=O)OCc1c(C)[nH]c2ccc(N(C)C)cc2c1=O`, the survivor count [3] was 6 of 6.
`NC(=S)N/N=C1\COC(C(F)(F)F)(C(F)(F)F)C1` was tested, and the survivor count [4] was 3 of 6, the survivor count [5] was 0 of 6 and the survivor count (dose: 400.0 mg/kg/injection, schedule: Q04DX003 (ip), vehicle: Klucel (hydroxypropylcellulose) (HPC)) was 5 of 6.
For `O=C(Nc1ccc(F)cc1)Nc1ccc(Cl)cc1[N+](=O)[O-]`, the T/C [6] was 89 (2×), 94, 95 % of control, the T/C [7] was 92, 95, 97 % of control and the survivor count [7] was 6 of 6. For the same compound, the survivor count [3] was 3 of 3 and 6 of 6.
In the case of `CCOC(=O)N1CCN(CCO)CC1`, the survivor count [8] is reported as 2 of 3.
For `CCCCCCCCOB(OCCCCCCCC)OCCCCCCCC`, the survivor count [3] was 0 of 6 and the survivor count [1] was 0 of 6.
In the case of `CN(C)c1ccc(C=O)cc1[N+](=O)[O-]`, the survivor count [5] is reported as 3 of 6.
`COc1cc2c(cc1OC)C(Cc1ccc(Oc3ccc(Cc4c5c(cc(OC)c4OC)CC[N+](C)(C)C5)cc3)cc1)[N+](C)(C)CC2` (stereo not drawn) was tested, and the survivor count (dose: 6.25 mg/kg/injection, schedule: Q04DX002 (ip), vehicle: saline with Tween-80) was 1 of 3, the survivor count (dose: 12.5 mg/kg/injection, schedule: Q04DX002 (ip), vehicle: saline with Tween-80) was 0 of 3 and the survivor count (dose: 25.0 mg/kg/injection, schedule: Q04DX002 (ip), vehicle: saline with Tween-80) was 0 of 3. The survivor count [9] was 0 of 3, the survivor count [10] was 0 of 3 and the survivor count [11] was 0 of 3.
In the case of `CC(C)c1ccc2c(c1)CCC1C2CCCC1(C)NCc1ccccc1` (stereo not drawn), the survivor count (dose: 83.0 mg/kg/injection, schedule: Q01DX Z (ip), vehicle: methylcellulose (MC)) is reported as 3 of 6, the survivor count (dose: 125.0 mg/kg/injection, schedule: Q01DX Z (ip), vehicle: methylcellulose (MC)) is reported as 1 of 6 and the survivor count (dose: 187.0 mg/kg/injection, schedule: Q01DX Z (ip), vehicle: methylcellulose (MC)) is reported as 0 of 6.
In the case of `O=C(NC1CCCCC1)Oc1cc(CCl)cc(CCl)c1`, the survivor count [4] is reported as 3 of 3.
With `CC(SC(C)c1ccccc1)c1ccccc1` (stereo not drawn) the survivor count [3] was 6 of 6.
With `CCOC(=O)C(Cl)C(C)(O)c1ccccc1` (stereo not drawn) the survivor count [11] was 3 of 3.
`O=NN(CCCl)C(=O)NN1CCCCCC1` was tested, and the survivor count (dose: 60.0 mg/kg/injection, schedule: Q01DX001 (ip), vehicle: carboxymethylcellulose (CMC)) was 0 of 6, the survivor count (dose: 75.0 mg/kg/injection, schedule: Q01DX001 (ip), vehicle: carboxymethylcellulose (CMC)) was 0 of 6 and the survivor count (dose: 150.0 mg/kg/injection, schedule: Q01DX001 (ip), vehicle: carboxymethylcellulose (CMC)) was 0 of 6. For the same compound, the survivor count (dose: 300.0 mg/kg/injection, schedule: Q01DX001 (ip), vehicle: carboxymethylcellulose (CMC)) was 0 of 6.
In the case of `O=C(CCl)Nc1ccc(Br)cc1`, the survivor count [3] is reported as 0 of 6.
In the case of `CCNC(=O)Oc1c(Cl)cc(S(=O)(=O)F)cc1Cl`, the survivor count [12] is reported as 3 of 3, the survivor count [9] is reported as 0 of 3 and the survivor count [10] is reported as 0 of 3. For the same compound, the survivor count [11] was 0 of 3.
For `CCCCCCCCCCCC[N+]1(C)CC[N+](C)(CCCCCCCCCCCC)CC1` (stereo not drawn), the survivor count (dose: 400.0 mg/kg/injection, schedule: Q04DX002 (ip), vehicle: other) was 3 of 3.
With `CCOC1(C(=O)O)CC(c2ccc(Cl)cc2)Nc2c(OC)ccc(OC)c21` (stereo not drawn) the survivor count [1] was 6 of 6.
`O=C(Nc1cccc(C(F)(F)F)c1)N(CCO)Cc1ccccc1` was tested, and the T/C (dose: 100.0 mg/kg/injection, schedule: Q04DX002 (ip), vehicle: Klucel (hydroxypropylcellulose) (HPC)) was 96, 97, 105, 125 % of control, the T/C (dose: 200.0 mg/kg/injection, schedule: Q04DX002 (ip), vehicle: Klucel (hydroxypropylcellulose) (HPC)) was 92, 99, 105 % of control (2×) and the T/C (dose: 400.0 mg/kg/injection, schedule: Q04DX002 (ip), vehicle: Klucel (hydroxypropylcellulose) (HPC)) was 96 (2×), 100, 102 % of control.
`N/N=C1\CC(=O)NC(=O)N1` was tested, and the survivor count (dose: 300.0 mg/kg/injection, schedule: Q01DX001 (ip), vehicle: saline) was 1 of 6.
`C#CCN(C)C(C)=O` was tested, and the survivor count [13] was 2 of 6 and the survivor count [8] was 0 of 6.
`Cc1cc(Oc2ccc(Cl)cc2NC(=O)Nc2ccc(Cl)c(Cl)c2)c(S(=O)(=O)O)cc1Cl` was tested, and the survivor count [13] was 2 of 6 and the survivor count [8] was 0 of 6.
With `COC(=O)C1=C(C(=O)OC)C2(C)C=CC1O2` (stereo not drawn) the survivor count [12] was 1 of 6, the survivor count [6] was 0 of 6 and the survivor count [7] was 0 of 6. The survivor count [3] was 0 of 6.
With `O=C(NC(=S)Nc1cc(C(F)(F)F)ccc1Cl)c1ccccc1F` the T/C [14] was 95 and 97 % of control, the survivor count [14] was 3 of 3 and 6 of 6 and the T/C [12] was 88, 90, 96 % of control. The survivor count [12] was 3 of 3, the T/C [6] was 89 and 95 % of control and the survivor count [6] was 3 of 3 and 6 of 6. The survivor count [2] was 6 of 6 and the survivor count [15] was 6 of 6.
With `C=C(Br)CNC(=O)c1ccccc1` the survivor count (dose: 50.0 mg/kg/injection, schedule: Q01DX009 (ip), vehicle: Klucel (hydroxypropylcellulose) (HPC)) was 0 of 6, the survivor count (dose: 100.0 mg/kg/injection, schedule: Q01DX009 (ip), vehicle: Klucel (hydroxypropylcellulose) (HPC)) was 6 of 6 and the survivor count [4] was 0 of 6. The survivor count (dose: 400.0 mg/kg/injection, schedule: Q01DX001 (ip), vehicle: Klucel (hydroxypropylcellulose) (HPC)) was 0 of 6.
`CN(C)Cc1c(O)ccc2ccccc12` was tested, and the survivor count [11] was 0 of 3.
For `O=C(/C(=C/c1cccc(Cl)c1)c1ccccc1)c1ccc(O)cc1`, the survivor count (dose: 400.0 mg/kg/injection, schedule: Q01DX001 (ip), vehicle: carboxymethylcellulose (CMC)) was 2 of 4.
`O=C1/C(=C\c2ccccc2)C(Br)c2ccccc21` (stereo not drawn) was tested, and the survivor count (dose: 100.0 mg/kg/injection, schedule: Q01DX009 (ip), vehicle: water) was 3 of 6, the survivor count (dose: 100.0 mg/kg/injection, schedule: Q04DX003 (ip), vehicle: water) was 1 of 6 and the survivor count (dose: 200.0 mg/kg/injection, schedule: Q01DX009 (ip), vehicle: water) was 1 of 6. The survivor count (dose: 200.0 mg/kg/injection, schedule: Q04DX003 (ip), vehicle: water) was 0 of 6 and the survivor count (dose: 400.0 mg/kg/injection, schedule: Q04DX003 (ip), vehicle: water) was 6 of 6.
For `CC1(C)C[N+](C)(Cc2ccccc2)C1`, the survivor count [15] was 0 of 6 and the survivor count [1] was 0 of 6.
With `CCCCCCCCP(=O)(CCCC)CCCCCCCC` the survivor count (dose: 200.0 mg/kg/injection, schedule: Q01DX001 (ip), vehicle: saline with Tween-80) was 0 of 6 and the survivor count (dose: 400.0 mg/kg/injection, schedule: Q01DX001 (ip), vehicle: saline with Tween-80) was 0 of 6.
`CCCCCCCCC(Br)C(Br)CCCCCCCC(=O)O` (stereo not drawn) was tested, and the survivor count [9] was 2 of 3.
`CCC(O)CN` (stereo not drawn) was tested, and the survivor count [8] was 3 of 3.
In the case of `NC(=O)NC(=O)/C=C/C(=O)O`, the survivor count [7] is reported as 3 of 6 and the survivor count [1] is reported as 2 of 6.
